The chains are these.
B1: 187096 with C-terminal Strep-tag (designed binder)
ubiquitin mutein: MQIFVYTRELKQITLEVEPSDTIENVKAKIQDKEGIPPDQQMLFWKGKQLEDGRTLSDYNIWWNPNLSLNLDLRAASAWSHPQFEK
notes: also called Affilin-187096
B2: 187210 with C-terminal Strep-tag (designed binder)
ubiquitin mutein: MQIFVYTRALKQITLEVEPSDTIENVKAKIQDREGIPPDQQMLFWKGKQLEDGRTLSDYNIWWNPNLSLNLDLRAASAWSHPQFEK
notes: also called Affilin-187210
B3: 187131 with C-terminal Strep-tag (designed binder)
ubiquitin mutein: MQIFVYTRALKQITLEVEPSDTIENVKAKIQDKEGIPPDQQMLFWKGKQLEDGRTLSDYNIWWNPNLSLNLGLRAASAWSHPQFEK
notes: also called Affilin-187131
B4: 187186 with C-terminal Strep-tag (designed binder)
ubiquitin mutein: MQIFVYTRVLKQITLEVEPSDTIENVKARIQDKEGIPPDQQMLFWKGKQLEDGRTLSDYNIWWNPNLSLNLDLRAASAWSHPQFEK
notes: also called Affilin-187186
B5: 187191 with C-terminal Strep-tag (designed binder)
ubiquitin mutein: MQIFVYTRALKQITLEVEPSDTIENVKAKIQDKEGIPPDQQMLFWKGRQLEDGRTLSDYNIWWNPNLSLNLDLRAASAWSHPQFEK
notes: also called Affilin-187191
B6: 187170 with C-terminal Strep-tag (designed binder)
ubiquitin mutein: MQIFVYTRALKQITLEVEPSDTIENVKAKIQDKEGIPPDQQMLFWKGKQLEDGRTLSDYNIWWNPNLSLNLNLRAASAWSHPQFEK
notes: also called Affilin-187170
B7: 187134 with C-terminal Strep-tag (designed binder)
ubiquitin mutein: MQIFVYTRVLKQITLAVEPSDTIENVKAKIQDKEGIPPDQQMLFWKGKQLEDGRTLSDYNIWWNPNLSLNLDLRAASAWSHPQFEK
notes: also called Affilin-187134
B8: 187154 with C-terminal Strep-tag (designed binder)
ubiquitin mutein: MQIFVYTRALKQITLEVGPSDTIENVKAKIRDKEGIPPDQQMLFWKGKQLEDGRTLSDYNIWWNPNLSLDLDLRAASAWSHPQFEK
notes: also called Affilin-187154
B9: 187093 with C-terminal Strep-tag (designed binder)
ubiquitin mutein: MQIFVWTREFKQITLEVEPSDTIENVKAKIQDKEGIPPDQQMLFWKGKQLEDGRTLSDYNIWWNPNLSLNLDLRAASAWSHPQFEK
notes: also called Affilin-187093
B10: 187178 with C-terminal Strep-tag (designed binder)
ubiquitin mutein: MQIFVYTRVLKQITLEVEPSDTIENVKAKIQDKEGTPPDQQTLFWRGKQLEDGRTLSDYNIWWNPNLSLNLDLRAASAWSHPQFEK
notes: also called Affilin-187178
B11: 187295 with C-terminal Strep-tag (designed binder)
ubiquitin mutein: MQIFVYTRVLKQITLEVEPSDTIENVKAKIQDKEGIPPDQQMLFWKGKQLEDGRTLSDYNIWWNPNLSLNLDRRAASAWSHPQFEK
notes: also called Affilin-187295
B12: 187165 with C-terminal Strep-tag (designed binder)
ubiquitin mutein: MQIFVYTRALKQITLEVEPSDTVENVKAKIQDKEGIPPDQQMLFWKGKQLEDGRTLSDYNIWWNPNLSLDLDLRAASAWSHPQFEK
notes: also called Affilin-187165
B13: 187064 with C-terminal Strep-tag (designed binder)
ubiquitin mutein: MQIFVYTKQLKQITLEVEPSDTIENVKAKIQDKEGIPPDQQMLFWKGKQLEDGRTLSDYNIWWNPNLSLNLDLRAASAWSHPQFEK
notes: also called Affilin-187064
B14: 187092 with C-terminal Strep-tag (designed binder)
ubiquitin mutein: MQIFVYTAELKQITLEVEPSDTIENVKAKIQDKEGIPPDQQMLFWKGKQLEDGRTLSDYNIWWNPNLSLNLDLRAASAWSHPQFEK
notes: also called Affilin-187092
B15: 187283 with C-terminal Strep-tag (designed binder)
ubiquitin mutein: MQIFVYTRVLKQITLEVEPSDTIENVKAKIQDKEGIPPDQQMLFWKGKQLEDGRTLSDYNIWWNPNLSLNRDLRAASAWSHPQFEK
notes: also called Affilin-187283

Sequences of proteins named here, by UniProt entry; tags and fusion partners are left off.
UniProt Q04609, whole entry: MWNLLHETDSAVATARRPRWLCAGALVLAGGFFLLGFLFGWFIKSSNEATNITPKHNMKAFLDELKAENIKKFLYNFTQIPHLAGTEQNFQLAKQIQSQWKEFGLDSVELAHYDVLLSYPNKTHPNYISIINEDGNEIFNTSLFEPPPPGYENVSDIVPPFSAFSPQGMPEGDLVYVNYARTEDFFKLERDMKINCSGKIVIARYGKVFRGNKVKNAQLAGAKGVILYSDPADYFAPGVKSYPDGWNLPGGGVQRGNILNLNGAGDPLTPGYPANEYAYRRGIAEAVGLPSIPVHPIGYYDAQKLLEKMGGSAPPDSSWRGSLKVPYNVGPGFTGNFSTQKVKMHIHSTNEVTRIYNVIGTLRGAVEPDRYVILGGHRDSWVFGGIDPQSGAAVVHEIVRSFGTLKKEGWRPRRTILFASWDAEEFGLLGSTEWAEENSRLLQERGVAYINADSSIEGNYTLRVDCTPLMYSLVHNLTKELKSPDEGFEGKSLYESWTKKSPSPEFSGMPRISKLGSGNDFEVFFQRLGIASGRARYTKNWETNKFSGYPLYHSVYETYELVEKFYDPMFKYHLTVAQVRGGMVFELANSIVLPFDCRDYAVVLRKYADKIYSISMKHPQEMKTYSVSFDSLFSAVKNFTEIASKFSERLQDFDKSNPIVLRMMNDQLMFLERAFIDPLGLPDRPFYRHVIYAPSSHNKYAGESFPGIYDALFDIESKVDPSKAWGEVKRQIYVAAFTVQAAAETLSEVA

The target in the assay is T1, PSMA (prostate specific membrane antigen) expressed on cells (human, UniProt Q04609 1-750).
T1 construct: whole, on cells; also called cell surface-exposed PSMA; PSMA on LNCaP-cells
Description: flow cytometry on PSMA-expressing cells (LNCaP, HEK293-PSMA), paragraph 135. As to the method:
Flow cytometry was used to analyze the binding of PSMA binding proteins to cell surface-exposed PSMA. PSMA overexpressing human prostate carcinoma cell line LNCaP, PSMA overexpressing transfected HEK293-PSMA-cells, PSMA non-expressing PC3-cells and empty vector control HEK293-pEntry-cells were used. Cells were trypsinized and resuspended in medium containing FCS, washed and stained in pre-cooled FACS blocking buffer. A cell concentration of 1×10⁶ cells/ml was prepared for cell staining and 100 μl were respectively filled into the wells of a 96 well plate (Greiner) in triplicate for each cell line. Different concentrations, for example 50 nM of PSMA binding proteins or 0.5 μg/ml monoclonal anti-human-PSMA antibody (clone LNI-17; Biolegend; 342502) as positive control were added to PSMA overexpressing and control cells in several experiments. PSMA-binding proteins included C-terminal Strep-tags (see e.g. SEQ ID NO: 71) for purification and detection purposes. After 45 min the supernatants were removed and 100 μl/well rabbit anti-Strep-Tag antibody (obtained from GenScript; A00626), 1:300 diluted in FACS blocking buffer were added. Anti-PSMA antibody was detected with anti-mouse-IgG-Alexa 488 (Invitrogen; A-10680) with a dilution of 1:1000 in the positive control wells. After removal of the anti-Strep-Tag antibody from the other wells goat anti-rabbit IgG Alexa Fluor 488 antibody (obtained from Invitrogen; A11008) was applied in a 1:1000 dilution. Flow cytometry measurement was conducted on the Guava easyCyte 5HT device from Merck-Millipore at excitation wavelength 488 nm and emission wavelength 525/30 nm. […] Positive binding on PSMA-expressing cells was also observed for anti-PSMA-antibody.
B1: the binding result was “binds”.
On to B2, for which the binding result is listed as “binds”.
As for B3, the entry is “binds”; as for B4, “binds”; as for B5, “binds”.
With B6, the binding result is “binds”.
Take B7: the binding result was “binds”.
As for B8, the entry is “binds”; as for B9, “binds”; as for B10, “binds”.
The same measure for B11: “binds”.
As for B12, the binding result is listed as “binds”.
As for B13, the entry is “binds”.
As for B14, the entry is “binds”.
For B15, the binding result is “binds”.

The record behind these values is patent US20220168386A1 (NAVIGO PROTEINS, published 2022).
